{
  "source": "paper doi:10.1101/2020.01.10.902387",
  "experiment_in_all_cases": "pull-down",
  "key": {"[1]": {"target": "(His)6-FliJ (Salmonella enterica serovar Typhimurium) (UniProt P0A1K1)"}, "[2]": {"target": "T1, GST-FliD (Salmonella enterica serovar Typhimurium) (UniProt P16328)", "T1 sequence": "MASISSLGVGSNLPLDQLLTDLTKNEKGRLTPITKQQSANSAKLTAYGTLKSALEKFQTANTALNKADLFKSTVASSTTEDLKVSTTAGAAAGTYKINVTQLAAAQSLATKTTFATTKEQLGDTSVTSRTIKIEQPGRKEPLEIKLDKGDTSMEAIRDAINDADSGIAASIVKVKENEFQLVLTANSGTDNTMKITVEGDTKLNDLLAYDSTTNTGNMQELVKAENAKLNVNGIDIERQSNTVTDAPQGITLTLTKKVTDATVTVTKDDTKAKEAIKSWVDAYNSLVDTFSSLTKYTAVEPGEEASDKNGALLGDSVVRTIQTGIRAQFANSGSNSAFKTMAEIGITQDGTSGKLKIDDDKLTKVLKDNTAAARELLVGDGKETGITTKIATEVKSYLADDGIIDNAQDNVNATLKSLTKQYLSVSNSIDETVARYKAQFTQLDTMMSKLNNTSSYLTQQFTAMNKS"}, "[3]": {"target": "GST-FliJ (Salmonella enterica serovar Typhimurium) (UniProt P0A1K1)"}},
  "note": "Results are given in words; binding and its absence hold for the method and conditions named. Binding seen in cells or lysates may run through a third protein. Some binding calls cover weakened binding; strength is not graded here. For some of these results: Where a sequence is shown, tags or fusion partners need not be part of it.",
  "data": [
    {"substance": "FliT94-L72A (from UniProt P0A1N2 1-94) (domain or fragment)", "values": [
      {"measurement": "binding", "setting": "[1]", "result": "no binding"},
      {"measurement": "binding", "setting": "[2]", "result": "binds"}
    ]},
    {"substance": "wild type FliT (from UniProt P0A1N2 1-122)", "values": [
      {"measurement": "binding", "setting": "[2]", "result": "binds"}
    ]},
    {"substance": "FliT94 (from UniProt P0A1N2 1-94) (domain or fragment)", "values": [
      {"measurement": "binding", "setting": "[1]", "result": "binds"},
      {"measurement": "binding", "setting": "[3]", "result": "binds"}
    ]},
    {"substance": "full-length FliT-L72A (from UniProt P0A1N2 1-122)", "values": [
      {"measurement": "binding", "setting": "[3]", "result": "no binding"},
      {"measurement": "binding", "setting": "[2]", "result": "binds"}
    ]},
    {"substance": "wild type FlgN (from UniProt P0A1J7 1-140)", "values": [
      {"measurement": "binding", "setting": "[3]", "result": "binds"}
    ]},
    {"substance": "FlgNΔ90-100 (from UniProt P0A1J7 1-140)", "values": [
      {"measurement": "binding", "setting": "[3]", "result": "no binding"}
    ]},
    {"substance": "FlgNΔ76-78 (from UniProt P0A1J7 1-140)", "values": [
      {"measurement": "binding", "setting": "[3]", "result": "no binding"}
    ]}
  ]
}
